Screening data

From PubChem BioAssay record AID2061315 (NCATS, 2025).

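Human aldehyde dehydrogenase 1A3 (retinaldehyde dehydrogenase 3) is screened for compounds that block its enzyme activity across a concentration series; the incubation time is not stated here.
Each compound was run as a concentration series reaching mostly up to 56 µM.
The value is a fitted potency (AC50) for inhibition of the enzyme; a lower number means a more potent inhibitor.
Calls follow the shape of the inhibition curve; every row here is inconclusive, covering weak, partial, poorly fitted or single-point inhibition.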

Values are in µM.
Every entry below has the call inconclusive.
These entries are mostly ones the record files as inconclusive; other results of the assay are not listed here.
A potency from a partial, single-point or poor curve is only a rough figure.
Some entries filed as inconclusive have a full curve.

Compound	Potency (µM)	curve as filed
c1nc2nc(Nc3ccc(N4CCOCC4)cc3)nc(NC3CCCCC3)c2[nH]1	19.95	inhibitor, partial curve, poor fit
C=C1CC[C@@H](O)[C@]2(C)CC[C@H]3C(=C)C(=O)O[C@@H]3[C@@H]12	35.48	inhibitor, single point
CCN(CC)Cc1ccc2cc(COC(=O)Nc3ccc(C(=O)NO)cc3)ccc2c1	3.548	inhibitor, full curve
Cc1cc(N(C)C)ccc1-c1nc2ccc(-c3nc4ccc(N5CCN(C)CC5)cc4[nH]3)cc2[nH]1	35.48	inhibitor, partial curve, poor fit
Cn1sc(=O)n(Cc2ccccc2)c1=O	22.39	inhibitor, partial curve
COc1cc(/C=C/C(=O)OCC2OC(OC3(CO)OC(CO)C(O)C3O)C(O)C(O)C2O)ccc1O (stereo not given)	7.08	inhibitor, partial curve
CC(C)(Cc1ccccc1)NCC(O)c1ccc(O)c(NS(C)(=O)=O)c1 (stereo not given)	2.818	inhibitor, full curve
Cc1coc2c1C(=O)C(=O)c1c-2ccc2c(C)cccc12	0.5623	inhibitor, full curve, poor fit
FC(F)c1nc2ccccc2n1-c1nc(N2CCOCC2)nc(N2CCOCC2)n1	0.8913	inhibitor, full curve, poor fit
COc1ccc(CC2C(=O)NC(C)C(=O)N(C)C3Cc4ccc(cc4)Oc4cc(ccc4OC4OC(CO)C(O)C(O)C4O)CC(C(=O)NC(C)C(=O)NC(CCC(=O)O)C(=O)N2C)N(C)C3=O)cc1 (stereo not given)	11.22	inhibitor, partial curve, poor fit
O=C(OC[C@H]1O[C@@H](Oc2ccc(O)cc2CO)[C@H](O)[C@@H](O)[C@@H]1O)c1ccccc1	15.85	inhibitor, partial curve, poor fit
CC1CC(O)CC(C)(C)C1(O)CCO (stereo not given)	22.39	inhibitor, partial curve
CN(C)C(=O)Nc1cccc(-c2ccc(N(C)C)cc2)c1	3.548	inhibitor, full curve, poor fit
C=CC(=O)Nc1cccc(Oc2nc(Nc3ccc(N4CCN(C)CC4)cc3OC)ncc2Cl)c1	2.818	inhibitor, full curve
CNC(=O)c1c(F)cccc1Nc1nc(Nc2cc3c(cc2OC)CCN3C(=O)CN(C)C)nc2[nH]ccc12	10	inhibitor, partial curve, poor fit
CCOC(=O)Nc1ccc(NCc2ccc(F)cc2)nc1N	10	inhibitor, partial curve
COC(=O)N1CC2(CC2)C[C@H](C(=O)NO)[C@H]1C(=O)N1CCN(c2ccccc2)CC1	28.18	inhibitor, partial curve, poor fit
C=CC(=O)Nc1cccc(Nc2nc(Nc3ccc(N4CCN(C(C)=O)CC4)cc3OC)ncc2C(F)(F)F)c1	3.548	inhibitor, partial curve, poor fit
CC(O)(C#Cc1ccc2c(c1)N(c1nc(N)ncc1Cl)CC2)c1nccs1 (stereo not given)	3.162	inhibitor, full curve
CCCCc1nc2cc(/C=C/C(=O)NO)ccc2n1CCN(CC)CC	3.548	inhibitor, full curve
O=C1NC(=O)C(c2cnc3ccccn23)=C1c1cn2c3c(cccc13)CN(C(=O)N1CCOCC1)CC2	28.18	inhibitor, partial curve, poor fit
N#Cc1ccc(N2CCN(C(=O)COc3ccc4[nH]cc(CCN)c4c3)CC2)cc1	12.59	inhibitor, partial curve, poor fit
NCC(CNc1nc(Nc2cccc(NC(=O)N3CCCC3)c2)ncc1I)C(=O)c1cccs1 (stereo not given)	12.59	inhibitor, partial curve
COc1cc(N2CCC(O)CC2)ccc1Nc1nc(Nc2ccccc2S(=O)(=O)C(C)C)c2[nH]cnc2n1	7.943	inhibitor, full curve
COc1ccc(C(O[C@@H]2O[C@H](CO)[C@@H](O)[C@H](O)[C@H]2O)C(CO)Oc2ccc(/C=C/CO)cc2OC)cc1O (stereo not given in full)	11.22	inhibitor, single point
OC/C=C/C=C/[C@H]1Cc2cc(O)cc(O)c2O1	35.48	inhibitor, partial curve, poor fit
CN(C)Cc1c(C(=O)NCCOc2ccc(C(=O)NO)cc2)oc2ccccc12	10	inhibitor, partial curve, poor fit
C=C1C(=O)O[C@@H]2[C@H]3C(=C)[C@@H](O)C[C@H]3C(=C)C[C@@H](O)[C@@H]12	3.162	inhibitor, full curve, poor fit
CO[C@H]1c2cc(C(C)C)c(O)c(O)c2[C@@]23CCCC(C)(C)C2[C@@H]1OC3=O (stereo not given in full)	2.512	inhibitor, full curve